Reference: patent publication US6692743B1, “Apoptosis of naive human NK cells by crosslinking of their FcγRIIIa molecules with a rat IgG2b (LO-CD2a/BTI-322) or its IgG1 humanized monoclonal antibody” (Universite Catholique de Louvain, priority 1998, dated 2004)

Test system: freshly isolated NK cells
Test: Effect of different inhibitors on LO-CD2a mediated NK apoptosis (PI, flow cytometry)
Type: cell-based, human
Conditions: 3 h pre-incubation with inhibitor, then 3 hours with LO-CD2a; 5 donors
Description: Effect of different inhibitors on LO-CD2a mediated NK apoptosis. 100 ul of freshly isolated NK cells (10^6/ml) were pre-incubated for 3 h at 37° C. in a 96 well plate with EGTA (20 mM), staurosporin (250 nM), quinacrine ([…]), cyclosporin A ([…]), FK506 ([…]), wortmannin (500 ng/ml), concanamycin A ([…]), cytochalasine D (1 mg/ml), actinomycin) (500 ng/ml final concentration), NOK-1 (25 mg/ml) or medium alone. After incubation for 3 hours with LO-CD2a ([…] final concentration) propidium iodide was added and cell mortality was analysed by flow cytometry.

## CN[C@@H]1C[C@H]2O[C@@](C)([C@@H]1OC)n1c3ccccc3c3c4c(c5c6ccccc6n2c5c31)C(=O)NC4 [staurosporine, Staurosporine]
  inhibition of LO-CD2a mediated NK apoptosis (in words): completely inhibited
